Measured values taken from patent publication US20150004144A1, “DIFFERENTIATION INTO BROWN ADIPOCYTES” (THE GENERAL HOSPITAL CORPORATION, priority 2011, published 2015).
At least one compound was matched to its structure with a doubt left.

Tests used:
[1] = tested on: other PPARs; settings: cited from earlier work
[2] = tested on: hPSC-derived adipocytes; test: Lipolysis assay (glycerol release)

Compound	activation of other PPARs [1]	Glycerol release after Forskolin induction ([2]; Example 2 brown-like cells, significantly higher than no virus control)	release of glycerol in response to forskolin ([2]; white and brown hPSC-derived adipocytes compared to unprogrammed cells, 10 μM Forskolin)
CCc1ccc(CCOc2ccc(CC3SC(=O)NC3=O)cc2)nc1 (racemic) [pioglitazone, (RS)-5-(4-[2-(5-ethylpryidin-2-yl)ethyloxy]benzyl)thiazolidine-2,4-dione]	weakly activate other PPARs		
C=C[C@@]1(C)CC(=O)[C@]2(O)[C@@]3(C)[C@@H](O)CCC(C)(C)[C@@H]3[C@H](O)[C@H](OC(C)=O)[C@@]2(C)O1 [forskolin]		increased metabolic activity as indicated through Glycerol release	significantly higher release of glycerol
